Measurements reported in PMC10807094.
Results are given in words; binding and its absence hold for the method and conditions named. Binding seen in cells or lysates may run through a third protein. Some results given as binding are weak or reduced against the parent protein; the word gives no strength.

Target: T1, serine/arginine rich splicing factor 5 (SRSF5) (UniProt Q13243)
T1 sequence: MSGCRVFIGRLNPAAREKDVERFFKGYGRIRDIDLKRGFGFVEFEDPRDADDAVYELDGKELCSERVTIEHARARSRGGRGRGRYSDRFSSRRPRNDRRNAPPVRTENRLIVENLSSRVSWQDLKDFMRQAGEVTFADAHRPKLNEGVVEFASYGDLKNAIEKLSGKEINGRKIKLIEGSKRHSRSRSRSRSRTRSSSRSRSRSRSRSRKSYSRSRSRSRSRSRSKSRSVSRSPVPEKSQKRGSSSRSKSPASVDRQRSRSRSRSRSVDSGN
Experiment: co-IP; HEK-293T cells, with and without LINC01852 overexpression; MG132 (20 µM) for 6 h before harvest; bait not stated

B1: E3 ubiquitin ligase TRIM72 (protein, UniProt Q6ZMU5 1-477)
chain: MSAAPGLLHQELSCPLCLQLFDAPVTAECGHSFCRACLGRVAGEPAADGTVLCPCCQAPTRPQALSTNLQLARLVEGLAQVPQGHCEEHLDPLSIYCEQDRALVCGVCASLGSHRGHRLLPAAEAHARLKTQLPQQKLQLQEACMRKEKSVAVLEHQLVEVEETVRQFRGAVGEQLGKMRVFLAALEGSLDREAERVRGEAGVALRRELGSLNSYLEQLRQMEKVLEEVADKPQTEFLMKYCLVTSRLQKILAESPPPARLDIQLPIISDDFKFQVWRKMFRALMPALEELTFDPSSAHPSLVVSSSGRRVECSEQKAPPAGEDPRQFDKAVAVVAHQQLSEGEHYWEVDVGDKPRWALGVIAAEAPRRGRLHAVPSQGLWLLGLREGKILEAHVEAKEPRALRSPERRPTRIGLYLSFGDGVLSFYDASDADALVPLFAFHERLPRPVYPFFDVCWHDKGKNAQPLLLVGPEGAEA
  binding: binds
